Data as given in patent US7094429B2, “Process for preparing tannate liquid and semi-solid dosage forms” (Kiel Laboratories, Inc., priority 2001, dated 2006).
Some results were stated once for a whole list of compounds, not compound by compound.

Test: Conversion process: active dissolved in supernatant of centrifuged MAS/tannic acid conversion samples
Details: in-situ tannate conversion in MAS/tannic acid dispersion

| Structure (SMILES) | amount of active ingredient present in solution at the ten, twenty and thirty minute mixing times [%] |
| --- | --- |
| CCN(CC)CCOCCOC(=O)C1(c2ccccc2)CCCC1 [Carbetapentane] | < 0.2 |
| COc1ccc(CN(CCN(C)C)c2ccccn2)cc1 [Pyrilamine] | < 0.2 |
